{
  "source": "patent US20150148759A1",
  "about": "“Pharmaceutical Patch for Transdermal Administration of Tapentadol” (Gruenenthal GmbH, priority 2012, published 2015)",
  "assay": "compatibility of API HCl with different adhesives",
  "type": "physicochemical",
  "details": "styrene-block-butadiene-block-styrene Duro-Tak 87-6911A",
  "description": "The compatibility of the hydrochloride salt of Tapentadol (API HCl) with different types of adhesives is tested (Table 2).\nDuro-Tak 87-900A: non-functional acrylic (no hydroxyl, no carboxyl groups), non-curing\nDuro-Tak 87-4287: hydroxyl-functionalized polyacrylate-vinylacetate copolymer, non-curing\nDuro-Tak 87-2677: carboxylate-functionalized polyacrylate-vinylacetate copolymer, self-curing\nDuro-Tak 87-6911 A: tackified styrene rubber (styrene-block-butadiene-block-styrene), not functionalized\nBio PSA 7-4502: silicone adhesive.",
  "note": "Where a name gives a salt, the structure may show the parent alone. The name of at least one read-out is uncertain.",
  "data": [
    {"smiles": "CC[C@@H](c1cccc(O)c1)[C@@H](C)CN(C)C", "note": "[API HCl]", "values": [
      {"measurement": "solubilization power", "result": "poor in comparison"}
    ]}
  ]
}
